No constants are given. Whether binding was seen depends on the method and setting. A result given as binding can be weak or reduced; the word gives no strength.
Tests used:
[1] = biological target: soluble αvβ6 (Homo sapiens (Human)); test: ELISA on soluble αvβ6, purified antibodies (FIG. 6)
[2] = biological target: soluble αvβ6 (Homo sapiens (Human)); test: ELISA (FIG. 6) and blocking of biotinylated αvβ6 to LAP (FIG. 7), purified mAbs

binding [1]: binds | binding [2]: binds
B1: hu3G9 version 5 (H3/L5), pKJS168 and pKJS188 pairing (antibody, human IgG1, V domains shown)
VH: EVQLVESGGGLVQPGGSLRLSCAASGFTFSRYVMSWVRQAPGKGLEWVASISSGGRMYYPDTVKGRFTISRDNAKNSLYLQMNSLRAEDTAVYYCARGSIYDGYYVFPYWGQGTLVTVSS
VL: EIVLTQSPATLSLSPGERATLSCSASSSVSSSYLYWYQQKPGQAPRLLIYSTSNLASGIPARFSGSGSGTDFTLTISSLEPEDFAVYYCHQWSTYPPTFGGGTKVEIK

From patent publication US20110305629A1
